Data published in publication PMC12948193.
The exact form of at least one protein or probe is not confirmed. A negative result means that nothing was seen under these conditions.

Test system: ARF10 DNA-binding domain (6xHis-ARF10)
Assay: competition with a labelled probe
Conditions: 200-fold excess vs N1, complex unchanged; EMSA: labeled probe 0.2 uM, LightShift Chemiluminescent EMSA Kit binding buffer (salt and pH not given), 25 C, 30 min; 4% native PAGE, 0.5x TBE; recombinant protein; protein details: 6xHis (pCold-His)

## ATGGGTAGTCTCAAAAAAAATAAAGGGGGAGGTGA (double strand) [pNPF2.13-ARF10-probe2-M-competitor]
  binding result: no binding
